# Laboratory results: the supplement of paper PMC10849652
# Chains of the proteins cited; added tags and fusions are not shown. Lines headed by an entry give the natural chain unless they say otherwise; changes in a name come on top.
# UniProt P48739: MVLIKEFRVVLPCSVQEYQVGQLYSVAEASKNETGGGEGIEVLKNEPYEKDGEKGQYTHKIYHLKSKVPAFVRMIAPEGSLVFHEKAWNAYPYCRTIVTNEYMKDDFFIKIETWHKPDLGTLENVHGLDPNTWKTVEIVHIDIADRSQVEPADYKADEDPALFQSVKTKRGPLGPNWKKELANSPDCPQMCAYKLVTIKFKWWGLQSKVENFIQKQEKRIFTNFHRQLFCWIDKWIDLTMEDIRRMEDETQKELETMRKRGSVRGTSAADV
# UniProt Q8WXW3: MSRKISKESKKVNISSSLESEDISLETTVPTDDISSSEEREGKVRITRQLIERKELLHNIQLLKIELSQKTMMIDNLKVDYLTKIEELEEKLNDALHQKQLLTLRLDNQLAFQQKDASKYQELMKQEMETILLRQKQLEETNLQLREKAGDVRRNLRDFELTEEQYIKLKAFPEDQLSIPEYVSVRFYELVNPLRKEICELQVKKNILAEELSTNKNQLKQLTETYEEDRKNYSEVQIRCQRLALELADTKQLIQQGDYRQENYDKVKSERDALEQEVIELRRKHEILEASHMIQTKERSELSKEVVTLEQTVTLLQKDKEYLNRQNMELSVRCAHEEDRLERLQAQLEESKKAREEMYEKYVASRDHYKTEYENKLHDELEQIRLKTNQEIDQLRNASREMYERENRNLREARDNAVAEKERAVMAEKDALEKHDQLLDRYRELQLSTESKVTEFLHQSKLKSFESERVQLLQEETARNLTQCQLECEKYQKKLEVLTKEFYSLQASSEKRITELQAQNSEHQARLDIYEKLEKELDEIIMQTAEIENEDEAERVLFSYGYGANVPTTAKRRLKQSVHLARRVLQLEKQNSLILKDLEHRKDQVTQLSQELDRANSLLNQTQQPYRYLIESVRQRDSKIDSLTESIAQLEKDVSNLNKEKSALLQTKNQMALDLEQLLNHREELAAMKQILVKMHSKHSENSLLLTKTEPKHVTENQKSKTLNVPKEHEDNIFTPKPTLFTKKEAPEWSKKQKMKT
# UniProt Q9NRD5, whole entry, looked up: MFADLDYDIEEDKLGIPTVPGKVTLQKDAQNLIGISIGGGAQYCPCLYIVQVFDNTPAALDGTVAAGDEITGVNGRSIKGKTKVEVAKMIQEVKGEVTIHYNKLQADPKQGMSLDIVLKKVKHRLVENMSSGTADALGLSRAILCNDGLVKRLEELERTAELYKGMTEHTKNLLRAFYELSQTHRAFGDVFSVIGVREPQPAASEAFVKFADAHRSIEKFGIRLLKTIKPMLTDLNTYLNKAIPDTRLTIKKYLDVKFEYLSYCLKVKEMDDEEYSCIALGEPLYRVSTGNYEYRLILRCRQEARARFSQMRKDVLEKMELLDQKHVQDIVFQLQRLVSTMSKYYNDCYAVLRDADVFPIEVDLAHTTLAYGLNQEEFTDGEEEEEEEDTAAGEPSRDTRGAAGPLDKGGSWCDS
# UniProt O00625: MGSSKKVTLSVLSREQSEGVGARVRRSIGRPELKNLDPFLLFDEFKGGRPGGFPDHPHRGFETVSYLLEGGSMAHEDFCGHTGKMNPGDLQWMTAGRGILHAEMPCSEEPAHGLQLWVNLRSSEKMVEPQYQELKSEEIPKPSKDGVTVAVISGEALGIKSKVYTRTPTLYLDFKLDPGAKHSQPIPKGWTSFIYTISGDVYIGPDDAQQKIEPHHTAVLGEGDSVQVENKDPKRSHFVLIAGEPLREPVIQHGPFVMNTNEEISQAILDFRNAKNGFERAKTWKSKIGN
# UniProt Q7RTV0, whole entry, looked up: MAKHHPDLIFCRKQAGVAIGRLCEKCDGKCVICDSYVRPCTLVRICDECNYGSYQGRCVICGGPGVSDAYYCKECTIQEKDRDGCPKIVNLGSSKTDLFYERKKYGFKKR
# UniProt O43175: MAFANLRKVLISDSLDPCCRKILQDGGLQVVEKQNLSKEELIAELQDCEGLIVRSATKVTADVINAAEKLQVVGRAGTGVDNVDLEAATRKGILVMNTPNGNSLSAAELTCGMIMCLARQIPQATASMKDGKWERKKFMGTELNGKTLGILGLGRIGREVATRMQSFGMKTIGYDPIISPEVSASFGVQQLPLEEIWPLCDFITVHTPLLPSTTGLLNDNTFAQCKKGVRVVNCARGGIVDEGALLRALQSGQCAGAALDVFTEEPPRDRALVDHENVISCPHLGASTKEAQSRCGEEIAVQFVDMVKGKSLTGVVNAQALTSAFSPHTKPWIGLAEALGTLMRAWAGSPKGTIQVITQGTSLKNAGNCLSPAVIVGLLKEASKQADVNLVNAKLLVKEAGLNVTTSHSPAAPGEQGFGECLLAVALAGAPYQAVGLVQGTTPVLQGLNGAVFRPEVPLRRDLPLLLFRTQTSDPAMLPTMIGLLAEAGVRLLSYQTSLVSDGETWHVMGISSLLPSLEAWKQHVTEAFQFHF
# UniProt Q00169: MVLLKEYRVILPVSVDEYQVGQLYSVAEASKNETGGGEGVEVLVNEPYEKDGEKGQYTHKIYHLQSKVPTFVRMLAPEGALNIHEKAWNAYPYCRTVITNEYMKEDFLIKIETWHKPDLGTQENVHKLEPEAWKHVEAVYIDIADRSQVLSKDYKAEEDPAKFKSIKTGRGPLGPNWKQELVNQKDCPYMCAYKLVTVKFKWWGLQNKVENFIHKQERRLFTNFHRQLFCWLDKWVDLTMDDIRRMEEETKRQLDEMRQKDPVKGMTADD
# UniProt Q5JRX3: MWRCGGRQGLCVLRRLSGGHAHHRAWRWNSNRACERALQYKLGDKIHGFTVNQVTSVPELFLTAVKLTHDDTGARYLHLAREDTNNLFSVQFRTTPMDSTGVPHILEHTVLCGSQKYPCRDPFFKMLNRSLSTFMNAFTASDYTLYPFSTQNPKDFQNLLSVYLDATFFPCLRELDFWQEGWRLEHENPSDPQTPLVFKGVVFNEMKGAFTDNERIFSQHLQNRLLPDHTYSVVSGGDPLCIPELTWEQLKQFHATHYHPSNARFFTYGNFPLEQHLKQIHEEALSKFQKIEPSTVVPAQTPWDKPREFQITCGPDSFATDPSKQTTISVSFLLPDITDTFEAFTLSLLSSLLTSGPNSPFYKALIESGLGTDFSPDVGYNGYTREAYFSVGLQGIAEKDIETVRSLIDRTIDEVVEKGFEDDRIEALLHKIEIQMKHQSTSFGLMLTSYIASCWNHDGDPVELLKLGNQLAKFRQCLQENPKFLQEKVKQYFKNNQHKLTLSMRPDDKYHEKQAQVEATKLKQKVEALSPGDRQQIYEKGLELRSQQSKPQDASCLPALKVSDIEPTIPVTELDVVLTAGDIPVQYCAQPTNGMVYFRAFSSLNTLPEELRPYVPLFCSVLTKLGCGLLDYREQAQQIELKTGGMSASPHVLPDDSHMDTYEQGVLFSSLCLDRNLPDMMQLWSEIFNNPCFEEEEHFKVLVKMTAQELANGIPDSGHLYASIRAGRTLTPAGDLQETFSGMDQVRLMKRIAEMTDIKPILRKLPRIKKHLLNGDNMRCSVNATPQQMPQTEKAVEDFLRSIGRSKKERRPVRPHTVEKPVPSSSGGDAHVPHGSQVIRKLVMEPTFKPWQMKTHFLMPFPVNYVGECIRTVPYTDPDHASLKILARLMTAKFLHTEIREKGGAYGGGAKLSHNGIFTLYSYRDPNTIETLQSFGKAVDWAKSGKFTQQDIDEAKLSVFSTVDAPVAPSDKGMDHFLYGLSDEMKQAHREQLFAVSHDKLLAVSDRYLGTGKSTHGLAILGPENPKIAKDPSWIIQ
# UniProt Q8NEB9, whole entry, looked up: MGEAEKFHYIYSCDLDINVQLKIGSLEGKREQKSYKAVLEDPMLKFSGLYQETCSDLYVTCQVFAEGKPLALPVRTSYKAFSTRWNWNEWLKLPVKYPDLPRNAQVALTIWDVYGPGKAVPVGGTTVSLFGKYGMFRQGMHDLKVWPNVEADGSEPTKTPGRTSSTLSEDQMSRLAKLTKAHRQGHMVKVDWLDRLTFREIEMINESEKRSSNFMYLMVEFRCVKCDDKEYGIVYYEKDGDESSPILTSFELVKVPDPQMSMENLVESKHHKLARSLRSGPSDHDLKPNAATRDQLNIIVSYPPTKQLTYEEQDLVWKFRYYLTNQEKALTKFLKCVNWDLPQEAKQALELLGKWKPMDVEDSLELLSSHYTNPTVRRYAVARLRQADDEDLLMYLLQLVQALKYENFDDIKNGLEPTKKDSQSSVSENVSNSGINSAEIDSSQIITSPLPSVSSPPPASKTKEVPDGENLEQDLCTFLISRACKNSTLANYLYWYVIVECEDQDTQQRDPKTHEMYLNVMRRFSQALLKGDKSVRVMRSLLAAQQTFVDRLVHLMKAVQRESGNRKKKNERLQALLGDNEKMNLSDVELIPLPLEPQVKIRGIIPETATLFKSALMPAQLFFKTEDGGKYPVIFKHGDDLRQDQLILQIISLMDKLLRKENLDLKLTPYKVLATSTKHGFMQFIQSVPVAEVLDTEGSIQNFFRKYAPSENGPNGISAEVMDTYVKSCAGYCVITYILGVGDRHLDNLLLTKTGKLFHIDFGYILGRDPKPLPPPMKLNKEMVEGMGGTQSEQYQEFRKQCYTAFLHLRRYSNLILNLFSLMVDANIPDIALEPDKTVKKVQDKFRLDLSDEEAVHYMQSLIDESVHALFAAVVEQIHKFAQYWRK
# UniProt Q8IV08: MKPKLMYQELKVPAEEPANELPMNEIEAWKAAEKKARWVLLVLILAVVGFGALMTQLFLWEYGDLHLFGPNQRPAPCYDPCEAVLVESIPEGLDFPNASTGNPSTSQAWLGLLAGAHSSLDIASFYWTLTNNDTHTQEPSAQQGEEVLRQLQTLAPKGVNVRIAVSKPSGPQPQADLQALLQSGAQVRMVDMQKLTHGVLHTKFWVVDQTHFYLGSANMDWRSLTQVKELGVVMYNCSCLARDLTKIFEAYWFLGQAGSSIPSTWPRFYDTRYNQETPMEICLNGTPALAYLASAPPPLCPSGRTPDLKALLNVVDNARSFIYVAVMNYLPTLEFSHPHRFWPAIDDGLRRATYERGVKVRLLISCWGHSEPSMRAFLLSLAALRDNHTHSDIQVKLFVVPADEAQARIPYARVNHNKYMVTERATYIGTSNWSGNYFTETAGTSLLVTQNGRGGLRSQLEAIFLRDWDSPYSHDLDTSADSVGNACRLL
# UniProt Q00722, whole entry, looked up: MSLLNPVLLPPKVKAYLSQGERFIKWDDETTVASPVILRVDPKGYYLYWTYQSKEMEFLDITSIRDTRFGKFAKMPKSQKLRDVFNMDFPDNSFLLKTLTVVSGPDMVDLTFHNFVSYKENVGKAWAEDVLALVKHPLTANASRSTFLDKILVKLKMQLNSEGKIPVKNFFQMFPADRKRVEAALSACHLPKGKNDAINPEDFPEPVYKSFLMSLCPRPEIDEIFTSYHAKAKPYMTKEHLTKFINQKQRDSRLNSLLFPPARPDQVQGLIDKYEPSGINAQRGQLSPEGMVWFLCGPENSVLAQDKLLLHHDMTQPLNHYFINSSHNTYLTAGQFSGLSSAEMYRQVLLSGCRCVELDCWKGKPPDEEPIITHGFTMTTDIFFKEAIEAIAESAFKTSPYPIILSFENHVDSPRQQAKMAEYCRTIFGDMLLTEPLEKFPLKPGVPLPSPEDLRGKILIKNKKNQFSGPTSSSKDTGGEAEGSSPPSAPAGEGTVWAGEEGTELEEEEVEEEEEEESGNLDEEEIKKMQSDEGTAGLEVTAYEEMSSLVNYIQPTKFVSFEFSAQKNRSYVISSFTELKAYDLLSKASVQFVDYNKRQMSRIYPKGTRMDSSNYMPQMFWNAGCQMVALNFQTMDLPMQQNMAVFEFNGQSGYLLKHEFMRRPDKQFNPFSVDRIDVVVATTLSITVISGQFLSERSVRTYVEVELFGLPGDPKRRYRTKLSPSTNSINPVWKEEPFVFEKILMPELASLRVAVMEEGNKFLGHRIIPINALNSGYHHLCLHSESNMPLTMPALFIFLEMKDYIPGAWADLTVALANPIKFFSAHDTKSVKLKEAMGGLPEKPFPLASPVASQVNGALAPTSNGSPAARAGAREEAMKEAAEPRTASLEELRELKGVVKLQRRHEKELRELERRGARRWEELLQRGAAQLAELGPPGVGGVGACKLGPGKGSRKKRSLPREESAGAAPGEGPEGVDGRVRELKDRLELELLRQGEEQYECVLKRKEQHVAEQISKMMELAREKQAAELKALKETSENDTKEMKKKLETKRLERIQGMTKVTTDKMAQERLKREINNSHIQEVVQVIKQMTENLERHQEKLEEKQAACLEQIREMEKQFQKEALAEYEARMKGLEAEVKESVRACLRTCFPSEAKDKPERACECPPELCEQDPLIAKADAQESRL
# UniProt P12273: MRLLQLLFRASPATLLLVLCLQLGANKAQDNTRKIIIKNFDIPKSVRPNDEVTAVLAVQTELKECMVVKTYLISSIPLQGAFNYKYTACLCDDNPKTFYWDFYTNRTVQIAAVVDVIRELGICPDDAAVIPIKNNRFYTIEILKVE
# The other results are listed elsewhere or left out.
# Legend:
# Test in all cases: log2 fold change, soluble protein after heating vs DMSO (PISA); higher = thermal stabilisation; K562 lysate, 10 uM; active = over 0.2 and 3.5 SD of the protein, either way, in both replicates (recomputed)
# [1] = compound: C#Cc1cccc(Nc2ncnc3cc(OCCOC)c(OCCOC)cc23)c1 [erlotinib]
# How it was run: (§1)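 K562 pellets were dounce-homogenised in PBS pH 7.4 containing 1 mM MgCl2, and the crude extract, at 1 mg/mL protein, was exposed to 10 μM compound for 30 min. Aliquots were heated for 3 min across 48°C-58°C, pooled, brought to 0.5% NP-40 at 4°C and spun at 21,000xg for 90 min, with the supernatant taken as soluble protein. TMTpro 16plex LC-MS/MS with equalised channel sums quantified that protein. Values are log-two fold changes in thermal stability relative to solvent controls, taken from duplicates.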
# [2] = compound: C/C(=N\NC(=O)C1=CC(=CC=C1)S(=O)(=O)N2CCOCC2)/C3=C(C=CC(=C3)Cl)O
# How it was run: as §1
# [3] = compound: C1=CC(=CC=C1C2=NC3=C(N2)C=C(C=C3)C(=O)N)OC4=CC=C(C=C4)Cl
# How it was run: as §1
# [4] = compound: C1=CC2=C(C=CC(=C2)/C=C\3/C(=O)NC(=NCC4=CC=CS4)S3)N=C1
# How it was run: as §1
# [5] = compound: C1=CC2=NC=CN=C2C=C1/C=C/3\C(=O)NC(=O)S3
# How it was run: as §1
# [6] = compound: C1=CC=C(C=C1)C2=NC(=C(N2)C3=CC=NC=C3)C4=CC(=C(C=C4)Cl)O
# How it was run: as §1
# [7] = compound: C1=CC=C2C(=C1)C3=NNC4=CC=CC(=C43)C2=O
# How it was run: as §1
# [8] = compound: C1CCN(C1)C(=O)NC2=CC=CC(=C2)NC3=NC=C(C(=N3)NCCC4=CN=CN4)Br
# How it was run: as §1
# [9] = compound: C1CN(CCC1(CC2=CC=C(C=C2)Cl)N)C3=NC=NC4=C3C=CN4
# How it was run: as §1
# [10] = compound: C1COCCN1CCN2C3=CC=CC=C3N=C2NC(=O)C4=CC(=CC=C4)[N+](=O)[O-] [IRAK-1-4 Inhibitor I]
# How it was run: as §1
# [11] = compound: C=CC(=O)N1CCC[C@@H](n2nc(-c3ccc(Oc4ccccc4)cc3)c3c(N)ncnc32)C1 [ibrutinib]
# How it was run: as §1
# [12] = compound: CC(=O)c1cnc2ccc(-c3cc(Cl)c(O)c(Cl)c3)nc2c1N[C@H]1CC[C@H](CN(C)C)CC1
# How it was run: as §1
# [13] = compound: CC(C)(C)Cn1c(N)nc2ccc(-c3[nH]c(C(C)(C)C)nc3-c3ccc(F)cc3)nc21 [ralimetinib]
# How it was run: as §1
# [14] = compound: CC(C)(O)CC(=O)NCCn1ccc2ncnc(Nc3ccc(Oc4cccc(C(F)(F)F)c4)c(Cl)c3)c21
# How it was run: as §1
# [15] = compound: CC(C)C1=C2N=C(C=C(N2N=C1)NCC3=CC=CC=C3)NCCCCCCN
# How it was run: as §1
# [16] = compound: CC1=C(C(CC(=O)N1)C2=CC=C(C=C2)C(F)(F)F)C(=O)NC3=C(C=C4C(=C3)C=NN4)F
# How it was run: as §1
# [17] = compound: CC1=C(C2=C(C=C1)C(=O)C3=CC=CC=C3N2CCCN)C
# How it was run: as §1
# [18] = compound: CC1=C(C=C(C=C1)NC(=O)C2=CC(=CC=C2)C(C)(C)C#N)NC3=CC4=C(C=C3)N=CN(C4=O)C
# How it was run: as §1
# [19] = compound: CC1=C(C=C(C=C1)NC(=O)C2=CC(=CC=C2)N(C)C)NC(=O)C3=CC=C(C=C3)O
# How it was run: as §1
# [20] = compound: CC1=CC=C(C=C1)SC2=C3C=C(SC3=CN=C2)C(=O)N
# How it was run: as §1
Target,log2 fold change [1],log2 fold change [2],log2 fold change [3],log2 fold change [4],log2 fold change [5],log2 fold change [6],log2 fold change [7],log2 fold change [8],log2 fold change [9],log2 fold change [10],log2 fold change [11],log2 fold change [12],log2 fold change [13],log2 fold change [14],log2 fold change [15],log2 fold change [16],log2 fold change [17],log2 fold change [18],log2 fold change [19],log2 fold change [20]
PITPNB isoform 3 (UniProt P48739),inactive: -0.01,inactive: 0.054,inactive: -0.008,inactive: -0.013,inactive: -0.002,inactive: -0.026,inactive: 0.02,inactive: -0.003,inactive: 0.004,inactive: -0.002,inactive: -0.004,inactive: 0,inactive: 0.023,inactive: -0.013,inactive: -0.008,inactive: -0.004,inactive: 0.058,inactive: 0.001,inactive: 0.001,inactive: -0.003
PIBF1 (UniProt Q8WXW3),inactive: -0.042,inactive: 0.035,inactive: -0.057,inactive: -0.094,inactive: 0.041,inactive: 0.016,inactive: 0.002,inactive: -0.002,inactive: -0.037,inactive: -0.011,inactive: -0.045,inactive: -0.057,inactive: -0.005,inactive: 0.009,inactive: 0.003,inactive: 0.018,inactive: 0.019,inactive: -0.026,inactive: 0.058,inactive: 0.003
PLEKHA5 isoform 6 (UniProt Q9HAU0),inactive: -0.007,inactive: -0.021,inactive: 0.016,inactive: -0.058,inactive: 0.087,inactive: -0.021,inactive: -0.007,inactive: -0.002,inactive: -0.04,inactive: 0.019,inactive: 0.075,inactive: 0.003,inactive: -0.004,inactive: -0.001,inactive: 0.069,inactive: -0.013,inactive: -0.033,inactive: 0.028,inactive: 0.022,inactive: -0.036
PICK1 (UniProt Q9NRD5),inactive: 0.035,inactive: -0.17,inactive: 0.026,inactive: 0.042,inactive: -0.062,inactive: -0.016,inactive: 0.024,inactive: -0.106,inactive: -0.037,inactive: -0.007,inactive: 0.017,inactive: 0.07,inactive: 0.024,inactive: -0.058,inactive: 0.066,inactive: 0.033,inactive: 0,inactive: 0.013,inactive: 0.003,inactive: 0.009
PKN1 isoform 2 (UniProt Q16512),inactive: -0.014,inactive: 0.007,inactive: 0.018,inactive: -0.048,inactive: -0.042,inactive: -0.004,inactive: -0.175,inactive: -0.191,inactive: -0.203,inactive: -0.174,inactive: 0.011,inactive: -0.107,inactive: -0.001,inactive: 0.008,inactive: 0.006,inactive: 0.091,inactive: 0.021,inactive: 0.048,inactive: 0.035,inactive: 0.05
PIR (UniProt O00625),inactive: 0.017,inactive: -0.212,inactive: 0.01,inactive: 0.034,inactive: -0.034,inactive: 0.006,inactive: 0.151,inactive: 0.014,inactive: 0.027,inactive: -0.02,inactive: 0.029,inactive: -0.01,inactive: -0.017,inactive: 0.019,active: 0.254,inactive: -0.034,inactive: 0.007,inactive: -0.003,inactive: 0.232,inactive: -0.022
PI4KA (UniProt P42356),inactive: 0.018,inactive: -0.014,inactive: -0.055,inactive: 0.035,inactive: 0.075,inactive: -0.028,inactive: -0.027,inactive: -0.021,inactive: 0.02,inactive: -0.003,inactive: 0.012,inactive: 0.119,inactive: 0.011,inactive: -0.073,inactive: -0.045,inactive: 0,inactive: -0.039,inactive: 0.032,inactive: 0.04,inactive: -0.002
PHF5A (UniProt Q7RTV0),inactive: -0.02,inactive: 0.01,inactive: 0.054,inactive: -0.03,inactive: -0.026,inactive: 0.026,inactive: 0.045,inactive: 0.01,inactive: 0.037,inactive: -0.014,inactive: -0.044,inactive: 0.002,inactive: -0.008,inactive: 0.018,inactive: -0.012,inactive: -0.021,inactive: -0.048,inactive: 0.031,inactive: 0.02,inactive: -0.007
PHGDH (UniProt O43175),inactive: 0.033,inactive: 0.155,inactive: 0.05,inactive: -0.222,inactive: -0.092,inactive: -0.012,inactive: 0.04,inactive: 0.045,inactive: 0.021,inactive: 0.011,inactive: 0.03,inactive: 0.021,inactive: 0.013,inactive: 0.028,inactive: 0.012,inactive: -0.003,inactive: 0.013,inactive: -0.004,inactive: -0.012,inactive: 0.029
PITPNA (UniProt Q00169),inactive: 0.004,inactive: 0.008,inactive: -0.04,inactive: -0.032,inactive: -0.005,inactive: 0.009,inactive: 0.019,inactive: 0.035,inactive: -0.009,inactive: -0.025,inactive: -0.003,inactive: -0.008,inactive: 0.012,inactive: -0.004,inactive: -0.013,inactive: 0.019,inactive: -0.014,inactive: 0.004,inactive: -0.001,inactive: 0.005
PIGG (UniProt Q5H8A4),inactive: -0.023,inactive: -0.057,inactive: -0.004,inactive: 0.044,inactive: -0.017,inactive: -0.062,inactive: -0.036,inactive: 0,inactive: 0.011,inactive: 0.008,inactive: -0.014,inactive: -0.002,inactive: 0.066,inactive: -0.069,inactive: 0.044,inactive: 0.038,inactive: -0.032,inactive: 0.059,inactive: -0.018,inactive: -0.003
PITRM1 isoform 2 (UniProt Q5JRX3),inactive: -0.035,inactive: 0.011,inactive: 0.077,inactive: 0.04,inactive: -0.037,inactive: -0.025,inactive: 0.009,inactive: 0.016,inactive: 0.024,inactive: -0.015,inactive: 0.007,inactive: -0.004,inactive: 0.134,inactive: -0.009,inactive: -0.019,inactive: 0.001,inactive: -0.021,inactive: -0.001,inactive: -0.005,inactive: 0.012
PIK3C3 (UniProt Q8NEB9),inactive: 0.014,inactive: -0.059,inactive: 0.004,inactive: 0.017,inactive: 0.025,inactive: 0.009,inactive: 0.053,inactive: -0.084,inactive: 0.015,inactive: 0.081,inactive: -0.056,inactive: -0.021,inactive: -0.023,inactive: -0.096,inactive: 0.015,inactive: -0.032,inactive: -0.015,inactive: -0.002,inactive: -0.011,inactive: -0.056
PLD3 (UniProt Q8IV08),inactive: -0.013,inactive: 0.038,inactive: -0.019,inactive: -0.033,inactive: 0.002,inactive: -0.004,inactive: -0.001,inactive: -0.034,inactive: -0.001,inactive: -0.014,inactive: -0.005,inactive: -0.013,inactive: 0.023,inactive: -0.024,inactive: -0.017,inactive: 0.014,inactive: -0.009,inactive: 0.02,inactive: -0.045,inactive: 0.002
PLCB2 (UniProt Q00722),inactive: 0.063,inactive: 0.057,inactive: 0.036,inactive: -0.118,inactive: 0.045,inactive: 0.056,inactive: 0.049,inactive: -0.067,inactive: 0.01,inactive: -0.093,inactive: 0.012,inactive: 0.014,inactive: 0.044,inactive: -0.074,inactive: -0.082,inactive: 0.028,inactive: 0.046,inactive: 0.047,inactive: -0.025,inactive: -0.039
PIP (UniProt P12273),inactive: -0.135,inactive: 0.246,inactive: -0.58,inactive: -0.304,inactive: 0.21,inactive: 0.097,inactive: -0.263,inactive: -0.067,inactive: -0.759,inactive: -0.367,inactive: -0.11,inactive: -0.291,inactive: -0.207,inactive: 0.46,inactive: 0.906,inactive: 1.62,inactive: 0.221,inactive: 0.009,inactive: 0.073,inactive: -0.39
